# From publication PMC10247384
# Amino acid sequences for entries named in this document (tags omitted). A change or cut given only in a name is not applied to a line headed by its entry.
# UniProt Q9H6L5, whole entry: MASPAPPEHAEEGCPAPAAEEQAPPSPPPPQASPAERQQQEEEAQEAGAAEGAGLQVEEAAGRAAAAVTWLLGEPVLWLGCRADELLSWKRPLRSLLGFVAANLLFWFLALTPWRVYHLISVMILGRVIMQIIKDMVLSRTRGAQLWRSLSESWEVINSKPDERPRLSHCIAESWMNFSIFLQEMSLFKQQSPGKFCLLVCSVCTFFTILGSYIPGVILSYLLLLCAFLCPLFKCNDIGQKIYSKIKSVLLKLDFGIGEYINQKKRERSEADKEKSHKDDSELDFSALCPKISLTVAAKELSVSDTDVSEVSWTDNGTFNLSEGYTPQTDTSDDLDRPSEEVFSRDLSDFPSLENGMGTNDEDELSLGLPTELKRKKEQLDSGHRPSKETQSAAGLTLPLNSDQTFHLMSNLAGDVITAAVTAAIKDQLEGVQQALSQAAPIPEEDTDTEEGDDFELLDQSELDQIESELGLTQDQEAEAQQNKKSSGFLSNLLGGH
# No constants are given. Whether binding was seen depends on the method and setting. Binding seen in cells or lysates may run through a third protein. Some binding calls cover weakened binding; strength is not graded here.
# Molecular target: haemagglutinin (HA)-tagged ARL6IP1 (UniProt Q15041)
# Experiment: co-IP; HEK293T cells transfected with HA-tagged ARL6IP1 or FAM134B constructs; WT and variant proteins pulled down, the endogenous binding partner detected by immunoblot
substance,measurement,value
endogenous FAM134B (human cells) (from UniProt Q9H6L5 1-497),binding,binds
